The values below come from PubChem BioAssay AID256 (DTP/NCI, 2004).

The test system of the test is CD2F1 mice, L1210 leukemia ip, survival T/C. Description: NCI In Vivo Anticancer Drug Screen. Data for tumor model L1210 Leukemia (intraperitoneal) in CD2F1 (CDF1) mice. Particulars: higher T/C = longer survival. The method in brief:
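Vehicle-treated tumor-bearing mice served as controls (C) for compound-treated mice (T). Reported figure is T divided by C.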

Setting [1] is: T/C endpoint: median survival time, dose: 4.0 mg/kg/injection, schedule: Q01DX009 (ip), vehicle: saline.
The mark [2] stands for this setting: T/C endpoint: mean survival time, dose: 200.0 mg/kg/injection, schedule: Q04DX003 (ip), vehicle: saline.
[3] abbreviates: T/C endpoint: mean survival time, dose: 400.0 mg/kg/injection, schedule: Q04DX003 (ip), vehicle: saline with Tween-80.
[4] abbreviates: T/C endpoint: mean survival time, dose: 200.0 mg/kg/injection, schedule: Q01DX009 (ip), vehicle: saline with Tween-80.
Where [5] appears, read: T/C endpoint: mean survival time, dose: 200.0 mg/kg/injection, schedule: Q04DX003 (ip), vehicle: saline with Tween-80.
Where [6] appears, read: T/C endpoint: mean survival time, dose: 400.0 mg/kg/injection, schedule: Q04DX003 (ip), vehicle: saline.

The list is a part of this screen's results and no random one: it gathers tests that were run many times, whatever their T/C, doses with no T/C, and many T/C values between a quarter and a half above the control. Other doses and runs of a compound stand elsewhere. T/C: endpoint of the treated group in % of that of the vehicle group. Some doses have a count of surviving animals in place of a T/C: the source holds a T/C of zero for them, seemingly a mark for toxic or unscored doses. Some survivor counts are full or nearly so, which does not show that the dose was tolerated: the source hardly ever lists a survival T/C far under the control, and the zero likely stands for such cases as well. Counts of survivors are from the toxicity check (mostly the fifth day) where no day follows; animals may have died later. Schedules are NCI's codes, read here as Q, the interval in days (D) or hours (H), X, the number of doses. Some entries were tested several times; the results are listed from low to high. Some structures stand for samples that the source files as different forms (salt, stereo form or complex); doses refer to the form tested. For survival time, the PubChem record calls one and a half times the control and up active, and a quarter to a half above the control has no call in these data; cut-offs in other NCI protocols can differ. Some T/C values are followed by the survivors on the day toxicity was checked, most often the fifth; where none is given, no animal had died by that day.

Consider `CN(C)N=Nc1ccc(C(=O)O)cc1`, for which the T/C runs as follows: (T/C endpoint: mean survival time, dose: 100.0 mg/kg/injection, schedule: Q01DX009 (ip), vehicle: saline) 142 % of control; (T/C endpoint: mean survival time, dose: 150.0 mg/kg/injection, schedule: Q01DX009 (ip), vehicle: saline) 130 % of control; (T/C endpoint: median survival time, dose: 25.0 mg/kg/injection, schedule: Q01DX005 (ip), vehicle: saline) 127 % of control; (T/C endpoint: median survival time, dose: 50.0 mg/kg/injection, schedule: Q01DX005 (ip), vehicle: saline) 139 % of control; (T/C endpoint: median survival time, dose: 60.0 mg/kg/injection, schedule: Q01DX005 (ip), vehicle: saline) 134 % of control; (T/C endpoint: median survival time, dose: 100.0 mg/kg/injection, schedule: Q01DX005 (ip), vehicle: saline) 146 % of control. Further, for the setting “T/C endpoint: median survival time, dose: 200.0 mg/kg/injection, schedule: Q01DX005 (ip), vehicle: saline”, the T/C was 133 % of control. In addition, the survivor count is 5 of 6 (T/C endpoint: mean survival time, dose: 400.0 mg/kg/injection, schedule: Q01DX009 (ip), vehicle: saline); 5 of 6 (T/C endpoint: median survival time, dose: 277.7 mg/kg/injection, schedule: Q01DX005 (ip), vehicle: saline); 2 of 6 and 6 of 6 (T/C endpoint: median survival time, dose: 400.0 mg/kg/injection, schedule: Q01DX005 (ip), vehicle: saline).

Turning to `COc1oc(C2C/C(=C/C(C)=C/C(C)=C/C(C)=C/c3ccc([N+](=O)[O-])cc3)CO2)c(C)c(=O)c1C` (stereo unspecified), the T/C is, setting by setting: (T/C endpoint: median survival time, dose: 1.0 mg/kg/injection, schedule: Q01DX009 (ip), vehicle: saline) 135 % of control; (T/C endpoint: median survival time, dose: 2.0 mg/kg/injection, schedule: Q01DX009 (ip), vehicle: saline) 137 and 141 % of control; under setting [1], 132 % of control. For the same compound, the survivor count reads like this: under setting [1], 3 of 6; (T/C endpoint: median survival time, dose: 8.0 mg/kg/injection, schedule: Q01DX009 (ip), vehicle: saline) 0 of 6.

As for `CS(=O)(=O)OCCBr`, the survivor count is, setting by setting: (T/C endpoint: mean survival time, dose: 100.0 mg/kg/injection, schedule: Q04DX003 (ip), vehicle: saline) 6 of 6; under setting [2], 0 of 6.

For the compound `CC(=O)C1(O)Cc2c(O)c3c(c(O)c2C(OC2CC(N)C(O)C(C)O2)C1)C(=O)c1ccccc1C3=O` (stereo unspecified), the T/C (T/C endpoint: mean survival time, dose: 0.2 mg/kg/injection, schedule: Q01DX009 (ip), vehicle: water) was 129 % of control. Further, where the note is “T/C endpoint: mean survival time, dose: 1.6 mg/kg/injection, schedule: Q01DX009 (ip), vehicle: water”, the survivor count is recorded as 5 of 6.

In the case of `CC(=O)CC(C)=NCC(C)N=C(C)CC(C)=O.c1cc[c]([Sn][c]2ccccc2)cc1` (stereo unspecified), the survivor count runs as follows: (T/C endpoint: mean survival time, dose: 10.0 mg/kg/injection, schedule: Q01DX009 (ip), vehicle: saline with Tween-80) 3 of 6; (T/C endpoint: mean survival time, dose: 20.0 mg/kg/injection, schedule: Q01DX001 (ip), vehicle: saline with Tween-80) 0 of 6.

`CCNc1ncc2ccccc2c1-c1ccc(N2CCN(CCCl)CC2)cc1`: the survivor count (T/C endpoint: mean survival time, dose: 400.0 mg/kg/injection, schedule: Q04DX003 (ip), vehicle: saline + alcohol) was 0 of 3.

Turning to `Cc1c2ccccc2c(CSCCC(N)C(=O)O)c2ccc3ccccc3c12` (stereo unspecified), the survivor count under setting [3] is 6 of 6.

Turning to `NC(CS)=NC1CN2CCC1CC2` (stereo unspecified), the survivor count (T/C endpoint: mean survival time, dose: 200.0 mg/kg/injection, schedule: Q04DX002 (ip), vehicle: saline) is 0 of 3.

For `CN1CCc2cc3c(cc2C1)OCO3`, the survivor count (T/C endpoint: mean survival time, dose: 200.0 mg/kg/injection, schedule: Q01DX001 (ip), vehicle: saline) is reported as 0 of 6; the survivor count (T/C endpoint: mean survival time, dose: 300.0 mg/kg/injection, schedule: Q01DX001 (ip), vehicle: other) is 0 of 6; the survivor count (T/C endpoint: mean survival time, dose: 400.0 mg/kg/injection, schedule: Q01DX001 (ip), vehicle: saline) was 0 of 6.

For the compound `CC(=O)ON1C(=O)c2cccc3cccc(c23)C1=O`, the survivor count under setting [4] is listed as 0 of 3.

Take `CCSC1=[N+](SCC)CCCS1`: the survivor count (T/C endpoint: mean survival time, dose: 150.0 mg/kg/injection, schedule: Q01DX001 (ip), vehicle: saline) is listed as 0 of 6 and the survivor count (T/C endpoint: mean survival time, dose: 300.0 mg/kg/injection, schedule: Q01DX001 (ip), vehicle: saline) was 0 of 6.

On to `NC(CSC(c1ccccc1)(c1ccccc1)c1ccc(CBr)cc1)C(=O)O` (stereo unspecified), for which the T/C (T/C endpoint: mean survival time, dose: 200.0 mg/kg/injection, schedule: Q01DX009 (ip), vehicle: other) was 140 % of control [4 of 6 alive].

As to `C[CH2][Sn]1([CH2]C)[O]C2C(CO)OC(n3ccc4c(N)ncnc43)C2[O]1` (stereo unspecified), the survivor count runs as follows: (T/C endpoint: mean survival time, dose: 6.25 mg/kg/injection, schedule: Q01DX005 (ip), vehicle: other) 6 of 6; (T/C endpoint: mean survival time, dose: 12.5 mg/kg/injection, schedule: Q01DX005 (ip), vehicle: other) 0 of 6 and 2 of 6; (T/C endpoint: mean survival time, dose: 25.0 mg/kg/injection, schedule: Q01DX005 (ip), vehicle: other) 0 of 6; (T/C endpoint: mean survival time, dose: 50.0 mg/kg/injection, schedule: Q01DX005 (ip), vehicle: other) 0 of 6; (T/C endpoint: mean survival time, dose: 100.0 mg/kg/injection, schedule: Q01DX005 (ip), vehicle: other) 0 of 6; (T/C endpoint: mean survival time, dose: 200.0 mg/kg/injection, schedule: Q01DX005 (ip), vehicle: other) 0 of 6.

With `COc1ccc(CC2C(=O)NC(C)C(=O)N(C)C3Cc4ccc(cc4)Oc4cc(ccc4O)CC(C(=O)NC(C)C(=O)NC(C)C(=O)N2C)N(C)C3=O)cc1` (stereo unspecified), the T/C reads like this: (T/C endpoint: mean survival time, dose: 8.0 mg/kg/injection, schedule: Q01DX009 (ip), vehicle: saline with Tween-80) 125 % of control [5 of 6 alive]; (T/C endpoint: median survival time, dose: 8.0 mg/kg/injection, schedule: Q01DX009 (ip), vehicle: saline with Tween-80) 134 % of control.

Turning to `C=CC(=C)CCC=C(C)C`, the survivor count (T/C endpoint: mean survival time, dose: 400.0 mg/kg/injection, schedule: Q01DX009 (ip), vehicle: acetone) is listed as 2 of 6.

As to `Nc1nc(=O)c2[nH]cnc2n1O`, the survivor count by setting is: (T/C endpoint: mean survival time, dose: 100.0 mg/kg/injection, schedule: Q04DX003 (ip), vehicle: saline with Tween-80) 1 of 6; under setting [5], 1 of 6; under setting [3], 0 of 6.

As to `CNC(=O)Oc1coc(CCl)cc1=O`, under setting [5], the survivor count is recorded as 4 of 6.

Regarding `COC(=O)/C=C\C(=O)O`, the survivor count (T/C endpoint: mean survival time, dose: 200.0 mg/kg/injection, schedule: Q01DX009 (ip), vehicle: saline) is 3 of 6.

`COc1ccc(CN2CCCNCC2)cc1`: the survivor count (T/C endpoint: mean survival time, dose: 400.0 mg/kg/injection, schedule: Q01DX005 (ip), vehicle: water) was 0 of 6.

`CC(Br)C(=O)c1ccc2ncccc2c1` (stereo unspecified): the survivor count is given as 0 of 3 (T/C endpoint: mean survival time, dose: 100.0 mg/kg/injection, schedule: Q04DX002 (ip), vehicle: other); 0 of 3 (T/C endpoint: mean survival time, dose: 200.0 mg/kg/injection, schedule: Q04DX002 (ip), vehicle: other); 0 of 3 (T/C endpoint: mean survival time, dose: 400.0 mg/kg/injection, schedule: Q04DX002 (ip), vehicle: other).

`CCN(CC)C(=O)c1ccc[n+](Cc2ccc(Cl)c(Cl)c2)c1`: the survivor count reads like this: under setting [2], 0 of 6; under setting [6], 0 of 6.

Turning to `CCOC(C[N+](C)(C)C)OCC`, the survivor count under setting [4] was 5 of 6.

In the case of `Nc1nc(C=O)nc2c1ncn2C1OC(CO)C(O)C1O` (stereo unspecified), the survivor count (T/C endpoint: median survival time, dose: 200.0 mg/kg/injection, schedule: Q01DX005 (ip), vehicle: water) is reported as 3 of 6.

In the case of `C1CCC(C2CCCC[N-]2)[N-]C1.CC(C)C([NH-])C(=O)O.[Cl][Pt]` (stereo unspecified), the survivor count (T/C endpoint: median survival time, dose: 320.0 mg/kg/injection, schedule: Q04DX003 (ip), vehicle: saline) is given as 1 of 5.

Turning to `O=C(O)CN(CCO)CCN(CC(=O)O)CC(=O)O`, the survivor count under setting [2] is 1 of 6 and the survivor count under setting [6] is reported as 0 of 6.

In the case of `O=C1NCC(Br)C(=O)N1` (stereo unspecified), the survivor count (T/C endpoint: mean survival time, dose: 400.0 mg/kg/injection, schedule: Q01DX009 (ip), vehicle: saline with Tween-80) is on record as 4 of 6.

On to `Cc1ccc(NC(=O)OCCSc2ccc(Cl)cc2)cc1C`, for which, under setting [4], the survivor count is 3 of 3.

For the compound `COC1CC(CC2CCC(C)C(C(C)C(=O)O)O2)OC2(OC(C)(C3CCC(C)(C4OC(C5OC(O)(CO)C(C)CC5C)CC4C)O3)CC2C)C1C` (stereo unspecified), for the setting “T/C endpoint: mean survival time, dose: 5.0 mg/kg/injection, schedule: Q01DX009 (ip), vehicle: Klucel (hydroxypropylcellulose) (HPC)”, the survivor count is 3 of 6.

Turning to `CCC1(O)C(=O)OCc2c1cc1n(c2=O)Cc2cc3ccc(C#N)cc3nc2-1` (stereo unspecified), the survivor count is recorded as 6 of 6 (T/C endpoint: median survival time, dose: 40.0 mg/kg/injection, schedule: Q04DX002 (ip), vehicle: saline with Tween-80) and 6 of 6 (T/C endpoint: median survival time, dose: 80.0 mg/kg/injection, schedule: Q04DX002 (ip), vehicle: saline with Tween-80).
